No constants are given. Whether binding was seen depends on the method and setting. In cells and extracts the contact can be indirect. Some results given as binding are weak or reduced against the parent protein; the word gives no strength. Where a sequence is shown, tags or fusion partners need not be part of it.
Experiments:
[1] = target: T1, CDKD;1:GFP (CYCLIN-… KINASE D;1 with C-terminal GFP) (Arabidopsis thaliana) (UniProt Q9C9U2); assay: co-IP; GFP-Trap agarose on 20 mg total protein extract of 14- to 15-day-old Arabidopsis seedlings co-expressing the two tagged proteins; 2 h at 4°C; washed with 50 mM Tris-HCl pH 7.5, 300 mM NaCl; western blot with anti-RFP, anti-HA and anti-GFP antibodies
T1 sequence: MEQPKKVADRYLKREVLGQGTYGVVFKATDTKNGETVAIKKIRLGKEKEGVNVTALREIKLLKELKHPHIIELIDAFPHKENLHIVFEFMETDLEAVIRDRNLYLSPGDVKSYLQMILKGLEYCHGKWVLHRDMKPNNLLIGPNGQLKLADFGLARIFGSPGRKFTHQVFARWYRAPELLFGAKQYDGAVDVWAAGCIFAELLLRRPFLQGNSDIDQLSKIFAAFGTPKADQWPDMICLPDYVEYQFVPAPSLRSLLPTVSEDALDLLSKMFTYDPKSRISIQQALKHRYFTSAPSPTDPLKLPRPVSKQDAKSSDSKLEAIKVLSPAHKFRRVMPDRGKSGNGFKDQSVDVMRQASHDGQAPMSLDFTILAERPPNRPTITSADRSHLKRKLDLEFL

[2] = target: T2, CDKD;3:GFP (CYCLIN-… KINASE D;3 with C-terminal GFP) (Arabidopsis thaliana) (UniProt Q9LMT0); assay: as above
T2 sequence: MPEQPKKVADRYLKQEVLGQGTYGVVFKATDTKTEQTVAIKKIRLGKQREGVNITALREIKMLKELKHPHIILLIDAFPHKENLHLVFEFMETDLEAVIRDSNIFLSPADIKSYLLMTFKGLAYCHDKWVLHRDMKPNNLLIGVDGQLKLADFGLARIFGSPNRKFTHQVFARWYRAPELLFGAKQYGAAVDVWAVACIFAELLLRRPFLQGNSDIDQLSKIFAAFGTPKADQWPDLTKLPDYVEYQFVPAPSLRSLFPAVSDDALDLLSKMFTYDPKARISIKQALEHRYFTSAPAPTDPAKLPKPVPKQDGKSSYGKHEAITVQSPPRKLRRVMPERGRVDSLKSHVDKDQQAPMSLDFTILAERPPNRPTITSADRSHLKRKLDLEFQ

binding [1]: binds | binding [2]: binds
B1: CDKF;1:PIPL (CDKF;1 with C-terminal PIPL tag) (enzyme, UniProt O80345 1-479)
chain: MDKQPATSWSIHTRPEIIAKYEIFERVGSGAYADVYRARRLSDGLIVALKEIFDYQSAFREIDALTILNGSPNVVVMHEYFWREEENAVLVLEFLRSDLAAVIRDGKRKKKVEGGDGFSVGEIKRWMIQILTGVDACHRNLIVHRDLKPGNMLISDDGVLKLADFGQARILMEHDIVASDENQQAYKLEDKDGETSEPPEVIPDYENSPRQGSDGQEREAMSKDEYFRQVEELKAKQVVRDDTDKDSNVHDGDISCLATCTVSEMDDDLGRNSFSYDADEAVDDTQGLMTSCVGTRWFRPPELLYGSTMYGLEVDLWSLGCVFAELLSLEPLFPGISDIDQISRVTNVLGNLNEEVWPGCVDLPDYKSISFAKVESPLGIEGCLPNHSGDVISLLKKLICYDPASRATTMEMLNDKYLSEEPLPVPVSELYVPPTMSGPDEDSPRKWNDYREMDSDSDFDGFGPMNVKPTSSGFTIEFP

Source: article PMC6852550
